Results: patent CN105384819A
Results are given in words; binding and its absence hold for the method and conditions named. Some entries that bind do so weakly or less than the wild type.

Protein sequences, listed by entry. Tags and fused reporters are not part of them. Residues count along the entry.
UniProt Q9NR61, residues 27-524: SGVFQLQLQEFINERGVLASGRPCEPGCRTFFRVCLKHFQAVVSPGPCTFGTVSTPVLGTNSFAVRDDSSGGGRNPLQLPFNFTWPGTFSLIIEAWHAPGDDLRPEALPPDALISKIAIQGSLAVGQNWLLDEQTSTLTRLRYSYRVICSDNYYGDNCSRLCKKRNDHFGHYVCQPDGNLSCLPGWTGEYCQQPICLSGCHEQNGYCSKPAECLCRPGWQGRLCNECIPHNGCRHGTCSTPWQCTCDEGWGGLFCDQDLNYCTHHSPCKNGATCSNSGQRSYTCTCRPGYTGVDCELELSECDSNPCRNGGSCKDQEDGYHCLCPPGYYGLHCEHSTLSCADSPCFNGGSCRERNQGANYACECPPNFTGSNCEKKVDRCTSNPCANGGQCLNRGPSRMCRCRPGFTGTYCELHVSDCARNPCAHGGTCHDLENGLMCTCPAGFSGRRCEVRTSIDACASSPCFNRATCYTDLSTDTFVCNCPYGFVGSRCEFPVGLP

How the values were obtained:
rhDLL4(重组人DLL4) (human) [1] = biological target: rhDLL4(重组人DLL4) (human) (UniProt Q9NR61); experiment: summary of results (SPR / cell assays)
rhDLL4(重组人DLL4) (human) [2] = biological target: rhDLL4(重组人DLL4) (human) (UniProt Q9NR61); experiment: SPR, Biacore X100, rhDLL4 immobilised on CM5 chip

B1: 抗人DLL4人源化抗体H3L2 (antibody, human IgG1, lambda, V domains shown)
VH: QVQLVQSGAEVKKPGSSVKVSCKASGYTFSGYWMQWIKQAPGQGLEWIGAIYPGDGDTRYTQKFKGRATLTADKSTSTAYMELSSLRSEDTAVYYCAGGNFFFDYWGQGTLVTVSS
VL: EIVITQSPDFQSVTPKEKVTITCSVSSSISSSYLHWYQQKPDQSPKPWIYGTSNLASGVPSRFSGSGSGTDYTLTINSLEAEDAATYYCQQWSSSPLTFGQGTKLEIKV
- binding (rhDLL4(重组人DLL4) (human) [1]): binds
- binding (rhDLL4(重组人DLL4) (human) [2]): binds
